The record followed here is patent EP0983376B1, “SCREENING ASSAYS FOR AGENTS THAT ALTER INHIBITOR OF APOPTOSIS (IAP) PROTEIN REGULATION OF CASPASE ACTIVITY” (The Burnham Institute, priority 1997, dated 1998).

Chains of the proteins cited; added tags and fusions are not shown. Lines headed by an entry give the natural chain unless they say otherwise; changes in a name come on top.
UniProt P55212: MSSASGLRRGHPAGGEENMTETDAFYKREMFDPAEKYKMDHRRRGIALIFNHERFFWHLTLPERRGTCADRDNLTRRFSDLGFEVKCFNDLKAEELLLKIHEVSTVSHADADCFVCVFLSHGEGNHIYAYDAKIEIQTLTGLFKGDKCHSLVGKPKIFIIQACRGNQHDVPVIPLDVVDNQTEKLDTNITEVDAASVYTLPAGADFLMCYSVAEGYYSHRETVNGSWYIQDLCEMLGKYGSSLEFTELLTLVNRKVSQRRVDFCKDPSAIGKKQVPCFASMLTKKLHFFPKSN
UniProt P55210: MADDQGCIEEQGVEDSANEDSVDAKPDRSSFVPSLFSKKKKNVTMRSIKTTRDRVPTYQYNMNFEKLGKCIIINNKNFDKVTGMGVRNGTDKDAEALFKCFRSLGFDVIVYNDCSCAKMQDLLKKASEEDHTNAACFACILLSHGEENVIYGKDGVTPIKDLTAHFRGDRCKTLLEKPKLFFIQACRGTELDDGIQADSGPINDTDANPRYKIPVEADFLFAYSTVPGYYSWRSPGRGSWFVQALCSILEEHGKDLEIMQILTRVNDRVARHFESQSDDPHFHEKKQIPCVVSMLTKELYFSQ
UniProt P98170: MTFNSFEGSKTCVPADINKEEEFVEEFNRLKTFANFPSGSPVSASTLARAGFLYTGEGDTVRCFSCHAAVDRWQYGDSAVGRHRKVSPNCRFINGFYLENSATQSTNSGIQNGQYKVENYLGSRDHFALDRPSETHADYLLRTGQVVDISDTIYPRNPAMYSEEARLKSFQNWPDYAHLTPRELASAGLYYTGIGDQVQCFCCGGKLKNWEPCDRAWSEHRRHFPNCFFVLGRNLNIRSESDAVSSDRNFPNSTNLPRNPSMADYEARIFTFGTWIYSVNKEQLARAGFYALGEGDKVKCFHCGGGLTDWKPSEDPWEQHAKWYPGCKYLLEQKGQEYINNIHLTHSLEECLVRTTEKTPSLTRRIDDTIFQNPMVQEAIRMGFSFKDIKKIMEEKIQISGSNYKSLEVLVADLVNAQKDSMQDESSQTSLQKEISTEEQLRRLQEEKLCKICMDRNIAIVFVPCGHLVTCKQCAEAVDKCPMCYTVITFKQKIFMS

For assay [1], the target named is purified recombinant caspase-6 (His6-tagged) (UniProt P55212). The experiment in a line: condition: 3 µg GST-XIAP on beads; 0.5 µg purified caspase; GST pull-down on glutathione-SEPHAROSE, immunoblot.
In assay [2] the target is purified recombinant active caspase-7 (His6-tagged) (UniProt P55210). The experiment in a line: opening sentence of Example IV.
The target is the same in assay [3]. The assay can be described thus: glutathione-SEPHAROSE affinity chromatography.
The target of assay [4] is purified recombinant caspase-6 (His6-tagged) (UniProt P55212). The assay can be described thus: condition: 6 µg GST-CD40 on beads; 0.5 µg purified caspase; GST pull-down on glutathione-SEPHAROSE, immunoblot. Background: A western blot detects proteins with antibodies after separation by electrophoresis.
The target of assay [5] is purified recombinant active caspase-7 (His6-tagged) (UniProt P55210). The assay is described as above.

No constants are given. Whether binding was seen depends on the method and setting. For some of these results: A result given as binding can be weak or reduced; the word gives no strength.

Take “GST-XIAP fusion protein (X chromosome linked inhibitor of apoptosis, full length) (from UniProt P98170 1-497)”: the binding result in assay [1] is on record as “no binding”. For GST-c-IAP-2 (from UniProt Q13489 1-604), the binding result in assay [2] and in assay [3] was “binds” throughout.

B1: GST-CD40 cytosolic domain (other, UniProt P25942 216-277, looked up)
chain: KKVAKKPTNKAPHPKQEPQEINFPDDLPGSNTAAPVQETLHGCQPVTQEDGKESRISVQERQ
notes: domain: cytosolic domain; Control protein; not shown: glutathione S-transferase
On to B1, for which the binding entry in assay [4] and in assay [5] was “no binding” throughout.

B2: GST-c-IAP-2(BIR) (other, human, UniProt Q13489 1-335, looked up)
chain: MNIVENSIFLSNLMKSANTFELKYDLSCELYRMSTYSTFPAGVPVSERSLARAGFYYTGVNDKVKCFCCGLMLDNWKRGDSPTEKHKKLYPSCRFVQSLNSVNNLEATSQPTFPSSVTNSTHSLLPGTENSGYFRGSYSNSPSNPVNSRANQDFSALMRSSYHCAMNNENARLLTFQTWPLTFLSPTDLAKAGFYYIGPGDRVACFACGGKLSNWEPKDNAMSEHLRHFPKCPFIENQLQDTSRYTVSNLSMQTHAARFKTFFNWPSSVLVNPEQLASAGFYYVGNSDDVKCFCCDGGLRCWESGDDPWVQHAKWFPRCEYLIRIKGQEFIRQVQ
notes: range 1-335; not shown: glutathione S-transferase encoded by vector pGEX4T; vector linker not described
As for B2, the binding result in assay [3] is “binds”.

B3: GST-c-IAP-1(BIR) (other, human, UniProt Q13490 1-350, looked up)
chain: MHKTASQRLFPGPSYQNIKSIMEDSTILSDWTNSNKQKMKYDFSCELYRMSTYSTFPAGVPVSERSLARAGFYYTGVNDKVKCFCCGLMLDNWKLGDSPIQKHKQLYPSCSFIQNLVSASLGSTSKNTSPMRNSFAHSLSPTLEHSSLFSGSYSSLSPNPLNSRAVEDISSSRTNPYSYAMSTEEARFLTYHMWPLTFLSPSELARAGFYYIGPGDRVACFACGGKLSNWEPKDDAMSEHRRHFPNCPFLENSLETLRFSISNLSMQTHAARMRTFMYWPSSVPVQPEQLASAGFYYVGRNDDVKCFCCDGGLRCWESGDDPWVEHAKWFPRCEFLIRMKGQEFVDEIQG
notes: range 1-350; not shown: glutathione S-transferase encoded by vector pGEX4T; vector linker not described
Turning to B3, the binding entry in assay [3] is reported as “binds”.
